In the supplement of paper PMC12823440, “Inhibitors supercharge kinase turnover through native proteolytic circuits” (Nature, 2025):
Counter-ions that a name gives are not always drawn. The list shows a part of the results. Hit calls seldom repeat between salt and free forms of one compound.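 Kinases, fused to nanoluciferase, were expressed in K562 cells; luminescence was measured every 4 h from 2 to 18 h as percent of control (DMSO = 100%, positive control = 0%). A time point is decreased if signal falls significantly (2 sigma). Hits were called by the authors by a rule that is not shown; the count of time points alone does not decide it.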

The chains behind the UniProt entries cited, without tags or fusion partners. Where a name states a change or a piece, a line headed by the entry shows the natural chain unless it says otherwise.
UniProt P00519, whole entry: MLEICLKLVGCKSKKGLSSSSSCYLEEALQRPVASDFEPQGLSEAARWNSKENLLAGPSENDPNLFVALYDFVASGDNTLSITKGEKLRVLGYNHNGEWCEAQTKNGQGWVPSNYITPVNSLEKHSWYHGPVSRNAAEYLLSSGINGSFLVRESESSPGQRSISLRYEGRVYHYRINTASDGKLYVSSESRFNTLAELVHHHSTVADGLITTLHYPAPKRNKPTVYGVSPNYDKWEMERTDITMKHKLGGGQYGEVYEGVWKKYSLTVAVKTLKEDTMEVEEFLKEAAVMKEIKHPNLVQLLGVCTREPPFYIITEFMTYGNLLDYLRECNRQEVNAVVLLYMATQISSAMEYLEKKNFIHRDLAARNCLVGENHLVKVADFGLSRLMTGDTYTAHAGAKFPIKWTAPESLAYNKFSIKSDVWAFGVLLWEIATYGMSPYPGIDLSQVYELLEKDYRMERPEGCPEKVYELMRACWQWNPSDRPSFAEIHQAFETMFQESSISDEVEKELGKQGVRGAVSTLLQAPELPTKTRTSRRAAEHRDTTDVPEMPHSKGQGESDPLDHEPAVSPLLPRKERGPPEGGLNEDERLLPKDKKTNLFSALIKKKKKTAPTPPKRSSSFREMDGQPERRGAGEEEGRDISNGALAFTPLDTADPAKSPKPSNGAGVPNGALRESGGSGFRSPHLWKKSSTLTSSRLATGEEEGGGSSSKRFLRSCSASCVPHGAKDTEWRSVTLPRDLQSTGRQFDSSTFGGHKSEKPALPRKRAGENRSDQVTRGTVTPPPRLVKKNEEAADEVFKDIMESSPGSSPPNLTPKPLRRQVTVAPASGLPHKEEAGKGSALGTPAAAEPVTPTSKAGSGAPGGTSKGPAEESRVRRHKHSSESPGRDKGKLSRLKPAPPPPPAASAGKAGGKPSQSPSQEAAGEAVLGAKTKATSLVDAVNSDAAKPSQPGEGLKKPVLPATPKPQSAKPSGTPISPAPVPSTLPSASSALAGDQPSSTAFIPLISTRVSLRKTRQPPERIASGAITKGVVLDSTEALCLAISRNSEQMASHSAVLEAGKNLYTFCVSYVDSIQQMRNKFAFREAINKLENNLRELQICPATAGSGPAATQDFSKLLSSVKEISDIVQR
UniProt Q9UM73: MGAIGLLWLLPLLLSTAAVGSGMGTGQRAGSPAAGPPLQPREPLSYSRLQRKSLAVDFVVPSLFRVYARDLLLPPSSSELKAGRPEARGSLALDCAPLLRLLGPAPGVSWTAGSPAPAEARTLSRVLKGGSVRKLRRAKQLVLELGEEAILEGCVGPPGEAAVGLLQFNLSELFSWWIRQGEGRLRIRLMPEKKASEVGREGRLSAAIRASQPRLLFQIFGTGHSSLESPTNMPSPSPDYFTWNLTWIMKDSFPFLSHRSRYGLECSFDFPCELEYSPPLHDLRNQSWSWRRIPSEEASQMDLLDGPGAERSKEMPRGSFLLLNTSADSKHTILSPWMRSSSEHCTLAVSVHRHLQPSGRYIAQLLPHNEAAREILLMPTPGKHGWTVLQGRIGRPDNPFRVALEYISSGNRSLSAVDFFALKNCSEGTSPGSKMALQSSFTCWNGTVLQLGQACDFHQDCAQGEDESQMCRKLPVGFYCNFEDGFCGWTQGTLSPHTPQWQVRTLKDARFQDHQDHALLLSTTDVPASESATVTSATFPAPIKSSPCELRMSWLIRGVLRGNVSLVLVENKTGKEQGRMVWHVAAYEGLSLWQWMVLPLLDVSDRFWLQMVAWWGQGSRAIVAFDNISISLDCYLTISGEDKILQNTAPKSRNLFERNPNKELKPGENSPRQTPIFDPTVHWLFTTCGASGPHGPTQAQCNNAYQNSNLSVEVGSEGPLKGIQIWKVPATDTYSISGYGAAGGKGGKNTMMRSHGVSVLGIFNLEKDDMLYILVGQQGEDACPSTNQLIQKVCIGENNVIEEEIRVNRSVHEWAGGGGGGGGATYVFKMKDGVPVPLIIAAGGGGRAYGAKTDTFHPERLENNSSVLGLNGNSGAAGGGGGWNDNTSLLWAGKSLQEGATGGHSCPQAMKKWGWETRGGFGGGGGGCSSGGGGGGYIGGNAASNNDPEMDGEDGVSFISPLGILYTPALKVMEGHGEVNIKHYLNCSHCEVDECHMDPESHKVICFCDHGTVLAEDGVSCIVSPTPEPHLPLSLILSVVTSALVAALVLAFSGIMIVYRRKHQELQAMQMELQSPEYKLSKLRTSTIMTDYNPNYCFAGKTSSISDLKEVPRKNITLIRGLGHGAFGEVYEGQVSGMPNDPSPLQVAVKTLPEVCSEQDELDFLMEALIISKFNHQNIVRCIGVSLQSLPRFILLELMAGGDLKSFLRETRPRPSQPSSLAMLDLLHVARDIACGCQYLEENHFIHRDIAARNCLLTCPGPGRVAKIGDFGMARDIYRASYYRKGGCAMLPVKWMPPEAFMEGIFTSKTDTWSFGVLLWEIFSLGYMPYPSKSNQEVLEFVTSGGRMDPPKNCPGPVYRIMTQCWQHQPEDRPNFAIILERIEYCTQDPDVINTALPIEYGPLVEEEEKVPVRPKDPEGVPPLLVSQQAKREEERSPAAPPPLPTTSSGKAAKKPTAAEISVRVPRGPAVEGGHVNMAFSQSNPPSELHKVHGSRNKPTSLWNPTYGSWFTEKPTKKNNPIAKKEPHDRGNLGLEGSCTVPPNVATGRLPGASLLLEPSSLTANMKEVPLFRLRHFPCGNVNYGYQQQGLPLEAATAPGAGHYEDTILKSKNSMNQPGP
UniProt P10398: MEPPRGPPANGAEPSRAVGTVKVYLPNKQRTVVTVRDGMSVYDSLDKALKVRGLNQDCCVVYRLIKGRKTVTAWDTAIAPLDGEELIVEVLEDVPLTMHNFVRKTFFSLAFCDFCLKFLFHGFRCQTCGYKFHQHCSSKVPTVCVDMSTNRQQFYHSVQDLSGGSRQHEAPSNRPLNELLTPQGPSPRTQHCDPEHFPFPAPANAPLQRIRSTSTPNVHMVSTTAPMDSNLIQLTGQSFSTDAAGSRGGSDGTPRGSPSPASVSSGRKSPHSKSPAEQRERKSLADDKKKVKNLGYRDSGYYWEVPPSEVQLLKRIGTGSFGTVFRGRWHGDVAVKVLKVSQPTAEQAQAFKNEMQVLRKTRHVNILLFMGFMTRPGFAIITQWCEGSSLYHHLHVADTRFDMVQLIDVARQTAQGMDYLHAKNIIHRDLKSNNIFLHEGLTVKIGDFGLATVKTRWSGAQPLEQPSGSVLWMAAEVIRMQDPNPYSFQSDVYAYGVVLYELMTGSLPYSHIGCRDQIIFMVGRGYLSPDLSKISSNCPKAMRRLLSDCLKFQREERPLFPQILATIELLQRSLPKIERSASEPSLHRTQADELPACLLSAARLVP
UniProt O14965: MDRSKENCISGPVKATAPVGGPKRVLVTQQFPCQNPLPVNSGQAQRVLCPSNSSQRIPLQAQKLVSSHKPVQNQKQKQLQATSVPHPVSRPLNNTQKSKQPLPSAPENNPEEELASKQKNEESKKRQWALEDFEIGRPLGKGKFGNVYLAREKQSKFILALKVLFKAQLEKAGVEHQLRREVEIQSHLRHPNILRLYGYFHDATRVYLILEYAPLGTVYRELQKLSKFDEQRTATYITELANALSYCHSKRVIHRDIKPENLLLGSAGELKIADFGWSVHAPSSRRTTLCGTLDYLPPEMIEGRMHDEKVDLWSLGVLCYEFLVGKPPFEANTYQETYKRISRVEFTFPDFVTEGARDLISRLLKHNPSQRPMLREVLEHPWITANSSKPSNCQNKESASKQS
UniProt Q96GD4, whole entry: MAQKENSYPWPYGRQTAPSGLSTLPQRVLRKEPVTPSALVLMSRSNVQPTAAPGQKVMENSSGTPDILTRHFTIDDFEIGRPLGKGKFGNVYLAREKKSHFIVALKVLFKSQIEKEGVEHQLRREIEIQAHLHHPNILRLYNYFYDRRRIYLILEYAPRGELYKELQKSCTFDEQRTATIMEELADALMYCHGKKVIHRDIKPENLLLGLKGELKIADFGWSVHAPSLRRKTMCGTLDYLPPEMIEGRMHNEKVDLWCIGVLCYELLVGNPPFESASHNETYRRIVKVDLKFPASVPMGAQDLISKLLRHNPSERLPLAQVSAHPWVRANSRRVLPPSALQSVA
UniProt Q9UQB9: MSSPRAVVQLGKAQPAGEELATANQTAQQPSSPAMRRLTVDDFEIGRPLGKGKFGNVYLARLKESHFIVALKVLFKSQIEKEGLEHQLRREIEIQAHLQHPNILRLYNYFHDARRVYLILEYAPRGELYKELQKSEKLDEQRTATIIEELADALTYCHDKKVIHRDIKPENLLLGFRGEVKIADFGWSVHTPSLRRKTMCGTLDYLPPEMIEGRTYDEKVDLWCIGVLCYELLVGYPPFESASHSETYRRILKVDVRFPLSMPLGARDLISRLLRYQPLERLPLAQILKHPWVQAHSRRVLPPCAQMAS
UniProt P51451: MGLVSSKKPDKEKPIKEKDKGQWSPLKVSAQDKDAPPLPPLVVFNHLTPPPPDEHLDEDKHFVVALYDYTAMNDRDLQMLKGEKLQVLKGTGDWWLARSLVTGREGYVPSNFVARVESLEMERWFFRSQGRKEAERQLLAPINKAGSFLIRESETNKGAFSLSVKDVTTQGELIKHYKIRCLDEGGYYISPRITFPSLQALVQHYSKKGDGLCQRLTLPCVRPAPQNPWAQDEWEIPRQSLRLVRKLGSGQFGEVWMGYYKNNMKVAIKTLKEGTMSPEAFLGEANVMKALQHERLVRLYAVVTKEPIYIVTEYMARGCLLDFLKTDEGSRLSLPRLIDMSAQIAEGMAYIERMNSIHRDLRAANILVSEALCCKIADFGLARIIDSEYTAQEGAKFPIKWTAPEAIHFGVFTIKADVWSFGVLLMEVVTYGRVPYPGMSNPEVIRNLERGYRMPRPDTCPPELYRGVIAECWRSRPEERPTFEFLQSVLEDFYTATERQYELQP
UniProt P51813: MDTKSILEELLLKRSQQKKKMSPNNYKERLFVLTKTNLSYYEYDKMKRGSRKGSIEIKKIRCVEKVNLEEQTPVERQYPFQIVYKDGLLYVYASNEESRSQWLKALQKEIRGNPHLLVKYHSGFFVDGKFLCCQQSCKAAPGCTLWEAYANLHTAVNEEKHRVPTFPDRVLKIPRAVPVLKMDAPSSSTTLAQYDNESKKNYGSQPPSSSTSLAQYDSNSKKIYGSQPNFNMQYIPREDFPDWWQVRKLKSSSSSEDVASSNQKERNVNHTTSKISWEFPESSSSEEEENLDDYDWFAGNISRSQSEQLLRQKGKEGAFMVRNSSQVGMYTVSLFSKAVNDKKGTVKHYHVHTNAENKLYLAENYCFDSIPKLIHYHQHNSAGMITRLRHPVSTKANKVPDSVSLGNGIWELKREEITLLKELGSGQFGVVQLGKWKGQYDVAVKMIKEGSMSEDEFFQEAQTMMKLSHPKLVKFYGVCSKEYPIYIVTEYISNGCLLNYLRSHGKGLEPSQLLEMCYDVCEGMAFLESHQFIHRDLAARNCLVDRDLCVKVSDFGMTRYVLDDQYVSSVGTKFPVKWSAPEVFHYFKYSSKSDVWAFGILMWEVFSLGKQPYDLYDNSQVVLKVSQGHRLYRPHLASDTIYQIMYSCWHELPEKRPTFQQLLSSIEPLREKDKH
UniProt P15056, whole entry, looked up: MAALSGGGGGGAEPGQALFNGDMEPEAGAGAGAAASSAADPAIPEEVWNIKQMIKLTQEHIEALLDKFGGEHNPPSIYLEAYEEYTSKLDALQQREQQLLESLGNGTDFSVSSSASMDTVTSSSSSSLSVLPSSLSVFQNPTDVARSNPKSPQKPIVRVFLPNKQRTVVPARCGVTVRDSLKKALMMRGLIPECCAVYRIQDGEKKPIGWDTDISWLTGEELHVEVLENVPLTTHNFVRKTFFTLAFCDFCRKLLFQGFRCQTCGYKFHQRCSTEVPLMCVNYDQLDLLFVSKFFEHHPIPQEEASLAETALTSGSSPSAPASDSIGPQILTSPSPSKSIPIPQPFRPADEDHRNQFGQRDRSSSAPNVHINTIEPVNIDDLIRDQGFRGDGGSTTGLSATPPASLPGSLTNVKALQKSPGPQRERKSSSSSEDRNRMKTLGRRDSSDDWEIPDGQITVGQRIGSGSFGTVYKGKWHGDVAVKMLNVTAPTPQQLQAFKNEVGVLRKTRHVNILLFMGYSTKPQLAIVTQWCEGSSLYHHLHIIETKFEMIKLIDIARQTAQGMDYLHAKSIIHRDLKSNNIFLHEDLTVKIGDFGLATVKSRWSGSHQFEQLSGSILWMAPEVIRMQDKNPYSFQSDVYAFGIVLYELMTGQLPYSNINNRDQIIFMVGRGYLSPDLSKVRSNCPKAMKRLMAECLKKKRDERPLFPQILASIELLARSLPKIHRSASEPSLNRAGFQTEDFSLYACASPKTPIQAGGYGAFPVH

Key:
Experiment in all cases: kinase-Nluc reporter destabilization hit call (1 = scored as downregulated) (binary); higher = compound decreases kinase abundance
Details in all cases: K562; 2-18 h
ABL1 = ABL1 (UniProt P00519)
AKT1 = AKT1 (UniProt P31749)
ALK = ALK (UniProt Q9UM73)
ARAF = ARAF (UniProt P10398)
AURKA = AURKA (UniProt O14965)
AURKB = AURKB (UniProt Q96GD4)
AURKC = AURKC (UniProt Q9UQB9)
BLK = BLK (UniProt P51451)
BMX = BMX (UniProt P51813)
BRAF = BRAF (UniProt P15056)

Measured: kinase-Nluc reporter destabilization hit call

Cn1c(=O)c2c(nc(S(C)(=O)=O)n2C)n(CC#Cc2cccc(O)c2)c1=O (2.5 µM)
inactive: ABL1 = 0 | AKT1 = 0 | ALK 0 | ARAF 0 | AURKA 0 | AURKB 0 | AURKC 0 | BLK 0 | BMX 0 | BRAF 0

O=C(NCCO)c1cc(C(=O)NCCO)cc(C(=O)NCCO)c1 (10 µM)
inactive: ABL1 = 0 | AKT1 = 0 | ALK 0 | ARAF 0 | AURKA 0 | AURKB 0 | AURKC 0 | BLK 0 | BMX 0 | BRAF 0

NCCOc1ccc(Cl)cc1C(=O)Nc1ccc([N+](=O)[O-])cc1Cl [HJC0152 hydrochloride] (2 µM)
inactive: ABL1 = 0 | AKT1 = 0 | ALK 0 | ARAF 0 | AURKA 0 | AURKB 0 | AURKC 0 | BLK 0 | BMX 0 | BRAF 0

c1nc2c(NC3CCCCC3)nc(Nc3ccc(N4CCOCC4)cc3)nc2[nH]1 [Reversine] (10 µM)
inactive: ABL1 = 0 | AKT1 = 0 | ALK 0 | ARAF 0 | AURKA 0 | AURKB 0 | AURKC 0 | BLK 0 | BMX 0 | BRAF 0

O=C(O)c1cc(N(Cc2ccccc2O)Cc2cc(O)ccc2O)ccc1O [Lavendustin A] (10 µM)
inactive: ABL1 = 0 | AKT1 = 0 | ALK 0 | ARAF 0 | AURKA 0 | AURKB 0 | AURKC 0 | BLK 0 | BMX 0 | BRAF 0

COc1ccc2c(Oc3ccc4c(C(=O)Nc5ccccc5N)cccc4c3)ccnc2c1 [Chiauranib] (10 µM)
inactive: ABL1 = 0 | AKT1 = 0 | ALK 0 | ARAF 0 | AURKA 0 | AURKB 0 | AURKC 0 | BLK 0 | BMX 0 | BRAF 0

COc1ccc(Nc2ncc(C(F)(F)F)c(NC3CC3)n2)cc1OC (10 µM)
inactive: ABL1 = 0 | AKT1 = 0 | ALK 0 | ARAF 0 | AURKA 0 | AURKB 0 | AURKC 0 | BLK 0 | BMX 0 | BRAF 0

Cc1cccc(/C=N/Nc2cc(N3CCOCC3)n3nc(-c4ccncc4)cc3n2)c1 (10 µM)
inactive: ABL1 = 0 | AKT1 = 0 | ALK 0 | ARAF 0 | AURKA 0 | AURKB 0 | AURKC 0 | BLK 0 | BMX 0 | BRAF 0

Quoted from above, two compounds:
COc1ccc(Nc2ncc(C(F)(F)F)c(NC3CC3)n2)cc1OC (10 µM)
inactive: ABL1 = 0 | AKT1 = 0 | ALK 0 | ARAF 0 | AURKA 0 | AURKB 0 | AURKC 0 | BLK 0 | BMX 0 | BRAF 0

Cc1cccc(/C=N/Nc2cc(N3CCOCC3)n3nc(-c4ccncc4)cc3n2)c1 (10 µM)
inactive: ABL1 = 0 | AKT1 = 0 | ALK 0 | ARAF 0 | AURKA 0 | AURKB 0 | AURKC 0 | BLK 0 | BMX 0 | BRAF 0

Further entries follow.

CC(C)Oc1ccc(F)c(-c2cnc(N)c(C(=O)Nc3cnccc3N3CCC[C@@H](C(=O)O)C3)n2)c1 (2 µM)
inactive: ABL1 = 0 | AKT1 = 0 | ALK 0 | ARAF 0 | AURKA 0 | AURKB 0 | AURKC 0 | BLK 0 | BMX 0 | BRAF 0

Nc1nc2c(nc(Br)n2[C@@H]2O[C@@H]3COP(=O)(O)O[C@H]3[C@H]2O)c(=O)[nH]1 [8-Bromo-cGMP (sodium)] (10 µM)
inactive: ABL1 = 0 | AKT1 = 0 | ALK 0 | ARAF 0 | AURKA 0 | AURKB 0 | AURKC 0 | BLK 0 | BMX 0 | BRAF 0

COc1ccc(S(=O)(=O)Nc2cc(-c3c(O)ccc4ccccc34)c(O)c3ccccc23)cc1 (10 µM)
inactive: ABL1 = 0 | AKT1 = 0 | ALK 0 | ARAF 0 | AURKA 0 | AURKB 0 | AURKC 0 | BLK 0 | BMX 0 | BRAF 0

COc1cc(-c2cc(-c3ccc(N4CCNCC4)cc3)cnc2C)cc(OC)c1OC (10 µM)
inactive: ABL1 = 0 | AKT1 = 0 | ALK 0 | ARAF 0 | AURKA 0 | AURKB 0 | AURKC 0 | BLK 0 | BMX 0 | BRAF 0

NCC1CCC(CNc2nc(NCc3ccccc3OC(F)(F)F)ncc2[N+](=O)[O-])CC1 (stereo not given) [PKC-theta inhibitor] (10 µM)
inactive: AKT1 = 0 | ALK 0 | ARAF 0 | AURKA 0 | AURKB 0 | AURKC 0 | BLK 0 | BMX 0 | BRAF 0
active: ABL1 = 1

COc1cc2c(cc1OC)/C(=C/c1ccc(O)cc1)C(=O)N2 (10 µM)
inactive: ABL1 = 0 | AKT1 = 0 | ALK 0 | ARAF 0 | AURKA 0 | AURKB 0 | AURKC 0 | BLK 0 | BMX 0 | BRAF 0

N#Cc1cnc2c(Cl)cc(NCc3cn(CCN4CCCCCC4)nn3)cc2c1Nc1ccc(F)c(Cl)c1 [Cot inhibitor-1] (10 µM)
inactive: ABL1 = 0 | AKT1 = 0 | ALK 0 | ARAF 0 | AURKA 0 | AURKB 0 | AURKC 0 | BLK 0 | BMX 0 | BRAF 0

CN(C)c1ccc(-c2nc3ncc(Cl)c(N4CCN(CC(=O)Nc5nccs5)CC4)c3[nH]2)cc1 (2 µM)
inactive: ABL1 = 0 | AKT1 = 0 | ALK 0 | ARAF 0 | AURKA 0 | AURKB 0 | AURKC 0 | BLK 0 | BMX 0 | BRAF 0

Nc1nccc(-c2c(-c3ccc(F)cc3)ncn2C2CCCCC2)n1 (10 µM)
inactive: ABL1 = 0 | AKT1 = 0 | ALK 0 | ARAF 0 | AURKA 0 | AURKB 0 | AURKC 0 | BLK 0 | BMX 0 | BRAF 0

O=C1Nc2ccc(CN3C(=O)CSC3=O)cc2/C1=C/c1cc(CN2CCOCC2)c[nH]1 (10 µM)
inactive: ABL1 = 0 | AKT1 = 0 | ALK 0 | ARAF 0 | AURKA 0 | AURKB 0 | AURKC 0 | BLK 0 | BMX 0 | BRAF 0

CC(C)CCN1c2nc(Nc3cc(F)c(O)c(F)c3)ncc2N(C)C(=O)C1C (stereo not given) (2.5 µM)
inactive: ABL1 = 0 | AKT1 = 0 | ALK 0 | ARAF 0 | AURKA 0 | AURKB 0 | AURKC 0 | BLK 0 | BMX 0 | BRAF 0

COCCOc1ccc2c(c1)ncn2-c1ccc2cccc(N3CCC(N)CC3)c2n1 (10 µM)
inactive: ABL1 = 0 | AKT1 = 0 | ALK 0 | ARAF 0 | AURKA 0 | AURKB 0 | AURKC 0 | BLK 0 | BMX 0 | BRAF 0

COc1cc2nccc(Oc3ccc(NC(=O)c4cn(C(C)C)c(=O)n(-c5ccc(F)cc5)c4=O)cc3F)c2cc1OC (0.5 µM)
inactive: ABL1 = 0 | AKT1 = 0 | ALK 0 | ARAF 0 | AURKA 0 | AURKB 0 | AURKC 0 | BLK 0 | BMX 0 | BRAF 0

O=C(c1cccc(Cl)c1F)N1CCN(Cc2cccc(Nc3nccs3)n2)CC1 (2.5 µM)
inactive: ABL1 = 0 | AKT1 = 0 | ALK 0 | ARAF 0 | AURKA 0 | AURKB 0 | AURKC 0 | BLK 0 | BMX 0 | BRAF 0

Cc1cc(CSc2ccccc2C(=O)NCCNc2ccc(C(F)(F)F)cc2[N+](=O)[O-])on1 (10 µM)
inactive: ABL1 = 0 | AKT1 = 0 | ALK 0 | ARAF 0 | AURKA 0 | AURKB 0 | AURKC 0 | BLK 0 | BMX 0 | BRAF 0

Cc1cc(C(=O)NC(C)(C)C)cc(C#Cc2ccc3c4c(oc3c2)C(C)(C)c2cc(NS(C)(=O)=O)ccc2C4=O)n1 (10 µM)
inactive: ABL1 = 0 | AKT1 = 0 | ALK 0 | ARAF 0 | AURKA 0 | AURKB 0 | AURKC 0 | BLK 0 | BMX 0 | BRAF 0

N#C/C(=C\c1ccc(O)c(O)c1)C(=O)O [Tyrphostin AG30] (10 µM)
inactive: ABL1 = 0 | AKT1 = 0 | ALK 0 | ARAF 0 | AURKA 0 | AURKB 0 | AURKC 0 | BLK 0 | BMX 0 | BRAF 0

Cc1cc(-n2c(=O)ccc3c[nH]c4nccc-4c32)ccc1F (10 µM)
inactive: ABL1 = 0 | AKT1 = 0 | ALK 0 | ARAF 0 | AURKA 0 | AURKB 0 | AURKC 0 | BLK 0 | BMX 0 | BRAF 0

Cc1cc(C)cc(NC(N)=Nc2ccccc2C(F)(F)F)c1 (10 µM)
inactive: ABL1 = 0 | AKT1 = 0 | ALK 0 | ARAF 0 | AURKA 0 | AURKB 0 | AURKC 0 | BLK 0 | BMX 0 | BRAF 0

O=C1OC(/C=C/c2ccccc2)=NC/1=C\c1cccnc1 (10 µM)
inactive: ABL1 = 0 | AKT1 = 0 | ALK 0 | ARAF 0 | AURKA 0 | AURKB 0 | AURKC 0 | BLK 0 | BMX 0 | BRAF 0

COC(=O)Nc1ccc(-c2nc(N3CCOCC3)c3cnn(C4CCN(Cc5cccnc5)CC4)c3n2)cc1 (10 µM)
inactive: ABL1 = 0 | AKT1 = 0 | ALK 0 | ARAF 0 | AURKA 0 | AURKB 0 | AURKC 0 | BLK 0 | BMX 0 | BRAF 0

Cc1nc[nH]c1CN1CCN(C(=O)N[C@@H](CC(C)C)C(=O)O)[C@@H](Cc2ccccc2)C1=O (10 µM)
inactive: ABL1 = 0 | AKT1 = 0 | ALK 0 | ARAF 0 | AURKA 0 | AURKB 0 | AURKC 0 | BLK 0 | BMX 0 | BRAF 0

Nc1ncnc2c1nc(Br)n2[C@@H]1O[C@@H]2COP(=O)(O)O[C@H]2[C@H]1O [8-Bromo-cAMP sodium salt] (10 µM)
inactive: ABL1 = 0 | AKT1 = 0 | ALK 0 | ARAF 0 | AURKA 0 | AURKB 0 | AURKC 0 | BLK 0 | BMX 0 | BRAF 0

Cc1ccc(-n2nc(C(C)(C)C)cc2NC(=O)Nc2ccc(OCCN3CCOCC3)cc2)cc1 (10 µM)
inactive: ABL1 = 0 | AKT1 = 0 | ALK 0 | ARAF 0 | AURKA 0 | AURKB 0 | AURKC 0 | BLK 0 | BMX 0 | BRAF 0

Cc1cccc(COc2cccc(/C=C3\C(=O)NN(c4ccccc4)C3=O)c2)c1 (10 µM)
inactive: ABL1 = 0 | AKT1 = 0 | ALK 0 | ARAF 0 | AURKA 0 | AURKB 0 | AURKC 0 | BLK 0 | BMX 0 | BRAF 0

O=C(Nc1cccnc1)c1cc(-c2ccnc(F)c2)ccc1OCc1ccccc1 (10 µM)
inactive: ABL1 = 0 | AKT1 = 0 | ALK 0 | ARAF 0 | AURKA 0 | AURKB 0 | AURKC 0 | BLK 0 | BMX 0 | BRAF 0

C#Cc1cccc(Nc2ncnc3cc(OC)c(NC(=O)N4C[C@H]5CCN(C)[C@H]5C4)cc23)c1 [Theliatinib] (10 µM)
inactive: ABL1 = 0 | AKT1 = 0 | ALK 0 | ARAF 0 | AURKA 0 | AURKB 0 | AURKC 0 | BLK 0 | BMX 0 | BRAF 0

C=CC(=O)Nc1cccc(Oc2nc(Nc3ccc(N4CCN(C)CC4)c(F)c3)nc3[nH]ccc23)c1 [Avitinib (maleate)] (2.5 µM)
inactive: AKT1 = 0 | ALK 0 | ARAF 0 | AURKA 0 | AURKB 0 | AURKC 0 | BLK 0 | BMX 0 | BRAF 0
active: ABL1 = 1

CC(C)=CC[C@@H](O)C1=CC(=O)c2c(O)ccc(O)c2C1=O [Shikonin] (10 µM)
inactive: ABL1 = 0 | AKT1 = 0 | ALK 0 | ARAF 0 | AURKA 0 | AURKB 0 | AURKC 0 | BLK 0 | BMX 0 | BRAF 0
